{
  "sequences": {"note": "Amino acid sequences for entries named in this document (tags omitted). Residues count along the entry.", "UniProt P11021, residues 19-654": "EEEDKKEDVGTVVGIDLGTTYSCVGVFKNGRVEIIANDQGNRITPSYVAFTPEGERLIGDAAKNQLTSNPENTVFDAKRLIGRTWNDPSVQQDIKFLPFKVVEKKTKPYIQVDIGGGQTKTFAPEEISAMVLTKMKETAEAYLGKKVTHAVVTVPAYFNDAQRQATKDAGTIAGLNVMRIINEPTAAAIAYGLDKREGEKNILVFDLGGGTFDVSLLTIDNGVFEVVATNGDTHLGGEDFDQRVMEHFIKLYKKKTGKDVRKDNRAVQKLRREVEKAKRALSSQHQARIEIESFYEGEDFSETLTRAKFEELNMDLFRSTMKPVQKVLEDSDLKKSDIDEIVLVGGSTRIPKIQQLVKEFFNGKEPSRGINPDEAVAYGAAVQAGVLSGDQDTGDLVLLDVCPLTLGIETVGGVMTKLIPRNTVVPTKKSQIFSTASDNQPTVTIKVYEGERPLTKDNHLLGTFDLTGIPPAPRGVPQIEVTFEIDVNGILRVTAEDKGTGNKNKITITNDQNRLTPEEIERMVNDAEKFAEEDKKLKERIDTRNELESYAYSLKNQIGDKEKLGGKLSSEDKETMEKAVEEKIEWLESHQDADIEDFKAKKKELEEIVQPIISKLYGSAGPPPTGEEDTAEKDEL"},
  "source": "paper doi:10.1101/699132",
  "about": "(bioRxiv, 2020)",
  "target": "T1, Flag-tagged human PRDX4 (human) (UniProt Q13162)",
  "T1 sequence": "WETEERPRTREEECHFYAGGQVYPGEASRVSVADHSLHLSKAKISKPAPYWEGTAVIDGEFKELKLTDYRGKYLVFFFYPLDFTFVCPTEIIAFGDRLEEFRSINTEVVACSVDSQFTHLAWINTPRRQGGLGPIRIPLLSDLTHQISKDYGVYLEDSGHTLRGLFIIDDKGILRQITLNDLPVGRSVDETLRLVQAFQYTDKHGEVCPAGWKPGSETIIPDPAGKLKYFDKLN",
  "assay": "co-IP",
  "note": "Results are given in words; binding and its absence hold for the method and conditions named. In cells and extracts the contact can be indirect. Some results given as binding are weak or reduced against the parent protein; the word gives no strength. Sequences can lack the tags named with a protein.",
  "data": [
    {"substance": "BiP, HEK293A cells (from UniProt P11021 19-654)", "values": [
      {"measurement": "binding", "result": "binds"}
    ]}
  ]
}
